# Measurements as given in the supplement of paper PMC8728848.
# The list shows a part of the results.
# B1: SUN4 (Saccharomyces cerevisiae), P53616 (protein)
# chain: MGSSHHHHHHSSGLVPRGSHNGSIYGDLADFSGPYEKFEDGTIPCGQFPSGQGVIPISWLDEGGWSGVENTDTSTGGSCKEGSYCSYACQPGMSKTQWPSDQPSDGRSIGGLLCKDGYLYRSNTDTDYLCEWGVDAAYVVSELSNDVAICRTDYPGTENMVIPTYVQAGDSLPLTVVDQDTYYTWQGLKTSAQYYVNNAGISVEDACVWGSSSSGVGNWAPLNFGAGSSDGVAYLSLIPNPNNGNALNFNVKIVAADDSSTVNGECIYENGSFSGGSDGCTVSVTAGKAKFVLYN
# Columns and labels:
# Assay in all cases: glycan array binding signal (z-score within array); higher = stronger binding
# Settings in all cases: glycan notation: IUPAC condensed, linker removed
# [1] = target: Neu5Gc(a2-8)Neu5Gc(a2-3)Gal(b1-4)GlcNAc(b1-3)Gal(b1-4)GlcNAc
# In short: (§1)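 Columns mapping to the same glycan were averaged after glycan names were converted to IUPAC-condensed notation. The data come from 3228 arrays in the Consortium for Functional Glycomics database, limited to those with an available protein sequence. Binding is reported as a within-array Z-score averaged across arrays of one protein sequence and across linkers.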
# [2] = target: Neu5Gc(a2-8)Neu5Gc(a2-6)Gal(b1-4)GlcNAc
# In short: as §1
# [3] = target: Neu5Gc(b2-6)Gal(b1-4)GlcNAc
# In short: as §1
binder,measurement,setting,value
B1,glycan array binding signal (z-score),[1],-0.172
same,glycan array binding signal (z-score),[2],-0.222
same,glycan array binding signal (z-score),[3],-0.476
